Assay results published in article PMC8270969.

Chains of the proteins cited; added tags and fusions are not shown. Lines headed by an entry give the natural chain unless they say otherwise; changes in a name come on top. Residues count along the entry.
UniProt Q16610, residues 20-540: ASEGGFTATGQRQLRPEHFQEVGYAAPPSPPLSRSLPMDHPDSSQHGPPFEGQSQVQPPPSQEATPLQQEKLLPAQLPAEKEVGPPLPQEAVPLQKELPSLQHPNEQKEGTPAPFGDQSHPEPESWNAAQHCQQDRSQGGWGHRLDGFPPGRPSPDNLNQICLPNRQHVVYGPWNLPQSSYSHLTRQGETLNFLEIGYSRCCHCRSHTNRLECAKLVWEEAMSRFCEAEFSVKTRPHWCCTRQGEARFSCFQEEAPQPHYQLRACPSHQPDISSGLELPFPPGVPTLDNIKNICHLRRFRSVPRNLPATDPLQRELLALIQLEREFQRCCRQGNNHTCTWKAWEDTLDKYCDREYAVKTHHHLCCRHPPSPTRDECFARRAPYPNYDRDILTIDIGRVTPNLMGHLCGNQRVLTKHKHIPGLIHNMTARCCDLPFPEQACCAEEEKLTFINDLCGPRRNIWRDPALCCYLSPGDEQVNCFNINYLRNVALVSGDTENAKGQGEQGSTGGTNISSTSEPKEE
UniProt P27824, residues 21-592: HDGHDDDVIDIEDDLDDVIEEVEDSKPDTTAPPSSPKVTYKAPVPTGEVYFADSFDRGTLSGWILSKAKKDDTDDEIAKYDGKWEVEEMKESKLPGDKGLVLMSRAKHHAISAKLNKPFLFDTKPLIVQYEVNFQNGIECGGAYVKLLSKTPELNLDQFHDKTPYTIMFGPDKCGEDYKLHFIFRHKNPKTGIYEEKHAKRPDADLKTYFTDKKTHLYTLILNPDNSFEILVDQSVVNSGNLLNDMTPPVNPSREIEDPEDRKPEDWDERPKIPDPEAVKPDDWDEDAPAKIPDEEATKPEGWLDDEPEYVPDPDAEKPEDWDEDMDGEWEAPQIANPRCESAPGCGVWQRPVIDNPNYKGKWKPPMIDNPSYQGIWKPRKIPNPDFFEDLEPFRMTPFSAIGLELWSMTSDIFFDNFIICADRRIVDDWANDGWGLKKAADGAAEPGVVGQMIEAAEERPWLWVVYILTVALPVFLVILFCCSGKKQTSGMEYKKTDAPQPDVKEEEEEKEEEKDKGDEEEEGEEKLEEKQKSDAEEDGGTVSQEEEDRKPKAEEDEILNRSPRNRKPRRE
UniProt P05556: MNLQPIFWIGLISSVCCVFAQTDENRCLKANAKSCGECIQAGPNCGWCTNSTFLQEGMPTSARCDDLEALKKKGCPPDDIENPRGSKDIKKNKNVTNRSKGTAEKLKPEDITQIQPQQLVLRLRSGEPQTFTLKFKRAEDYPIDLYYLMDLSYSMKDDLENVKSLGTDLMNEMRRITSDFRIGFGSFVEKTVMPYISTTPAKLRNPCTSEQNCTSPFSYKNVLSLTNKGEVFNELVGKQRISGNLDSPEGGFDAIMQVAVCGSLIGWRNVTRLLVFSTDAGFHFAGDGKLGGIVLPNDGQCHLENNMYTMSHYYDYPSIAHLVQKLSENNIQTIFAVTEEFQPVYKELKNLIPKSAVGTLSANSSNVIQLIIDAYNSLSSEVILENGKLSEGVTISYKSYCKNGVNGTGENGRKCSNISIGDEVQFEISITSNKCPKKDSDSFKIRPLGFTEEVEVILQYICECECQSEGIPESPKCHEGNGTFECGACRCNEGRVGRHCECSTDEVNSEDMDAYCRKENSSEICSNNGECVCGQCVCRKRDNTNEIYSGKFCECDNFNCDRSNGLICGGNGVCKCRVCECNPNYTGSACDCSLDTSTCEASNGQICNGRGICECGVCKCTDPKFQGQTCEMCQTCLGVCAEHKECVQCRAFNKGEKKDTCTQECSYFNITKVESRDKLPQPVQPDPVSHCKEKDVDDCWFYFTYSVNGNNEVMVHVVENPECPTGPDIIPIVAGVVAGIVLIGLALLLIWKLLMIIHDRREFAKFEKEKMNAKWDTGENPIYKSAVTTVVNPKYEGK
UniProt P07355: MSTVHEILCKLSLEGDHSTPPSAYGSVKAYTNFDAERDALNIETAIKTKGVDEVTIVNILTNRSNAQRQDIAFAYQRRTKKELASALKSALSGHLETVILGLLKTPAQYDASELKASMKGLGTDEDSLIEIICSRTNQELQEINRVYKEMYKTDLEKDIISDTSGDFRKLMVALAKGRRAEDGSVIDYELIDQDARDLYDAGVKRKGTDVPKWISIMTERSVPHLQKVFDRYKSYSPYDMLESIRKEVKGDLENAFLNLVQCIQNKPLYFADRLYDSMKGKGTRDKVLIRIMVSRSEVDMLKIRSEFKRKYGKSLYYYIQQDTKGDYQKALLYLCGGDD

B1: JUP (protein, UniProt P14923 1-745)
chain: MEVMNLMEQPIKVTEWQQTYTYDSGIHSGANTCVPSVSSKGIMEEDEACGRQYTLKKTTTYTQGVPPSQGDLEYQMSTTARAKRVREAMCPGVSGEDSSLLLATQVEGQATNLQRLAEPSQLLKSAIVHLINYQDDAELATRALPELTKLLNDEDPVVVTKAAMIVNQLSKKEASRRALMGSPQLVAAVVRTMQNTSDLDTARCTTSILHNLSHHREGLLAIFKSGGIPALVRMLSSPVESVLFYAITTLHNLLLYQEGAKMAVRLADGLQKMVPLLNKNNPKFLAITTDCLQLLAYGNQESKLIILANGGPQALVQIMRNYSYEKLLWTTSRVLKVLSVCPSNKPAIVEAGGMQALGKHLTSNSPRLVQNCLWTLRNLSDVATKQEGLESVLKILVNQLSVDDVNVLTCATGTLSNLTCNNSKNKTLVTQNSGVEALIHAILRAGDKDDITEPAVCALRHLTSRHPEAEMAQNSVRLNYGIPAIVKLLNQPNQWPLVKATIGLIRNLALCPANHAPLQEAAVIPRLVQLLVKAHQDAQRHVAAGTQQPYTDGVRMEEIVEGCTGALHILARDPMNRMEIFRLNTIPLFVQLLYSSVENIQRVAAGVLCELAQDKEAADAIDAEGASAPLMELLHSRNEGTATYAAAVLFRISEDKNPDYRKRVSVELTNSLFKHDPAAWEAAQSMIPINEPYGDDMDATYRPMYSSDVPLDPLEMHMDMDGDYPIDTYSDGLRPPYPTADHMLA
B2: S100A9 (protein, UniProt P06702 1-114)
chain: MTCKMSQLERNIETIINTFHQYSVKLGHPDTLNQGEFKELVRKDLQNFLKKENKNEKVIEHIMEDLDTNADKQLSFEEFIMLMARLTWASHEKMHEGDEGPGHHHKPGLGEGTP
B3: plakophilin-1 (protein, UniProt Q13835 1-747)
chain: MNHSPLKTALAYECFQDQDNSTLALPSDQKMKTGTSGRQRVQEQVMMTVKRQKSKSSQSSTLSHSNRGSMYDGLADNYNYGTTSRSSYYSKFQAGNGSWGYPIYNGTLKREPDNRRFSSYSQMENWSRHYPRGSCNTTGAGSDICFMQKIKASRSEPDLYCDPRGTLRKGTLGSKGQKTTQNRYSFYSTCSGQKAIKKCPVRPPSCASKQDPVYIPPISCNKDLSFGHSRASSKICSEDIECSGLTIPKAVQYLSSQDEKYQAIGAYYIQHTCFQDESAKQQVYQLGGICKLVDLLRSPNQNVQQAAAGALRNLVFRSTTNKLETRRQNGIREAVSLLRRTGNAEIQKQLTGLLWNLSSTDELKEELIADALPVLADRVIIPFSGWCDGNSNMSREVVDPEVFFNATGCLRKRLGMRELLALVPQRATSSRVNLSSADAGRQTMRNYSGLIDSLMAYVQNCVAASRCDDKSVENCMCVLHNLSYRLDAEVPTRYRQLEYNARNAYTEKSSTGCFSNKSDKMMNNNYDCPLPEEETNPKGSGWLYHSDAIRTYLNLMGKSKKDATLEACAGALQNLTASKGLMSSGMSQLIGLKEKGLPQIARLLQSGNSDVVRSGASLLSNMSRHPLLHRVMGNQVFPEVTRLLTSHTGNTSNSEDILSSACYTVRNLMASQPQLAKQYFSSSMLNNIINLCRSSASPKAAEAARLLLSDMWSSKELQGVLRQQGFDRNMLGTLAGANSLRNFTSRF
B4: S100A8 (protein, UniProt P05109 1-93)
chain: MLTELEKALNSIIDVYHKYSLIKGNFHAVYRDDLKKLLETECPQYIRKKGADVWFKELDINTDGAVNFQEFLILVIKMGVAAHKKSHEESHKE

target: HA-tagged ECM1a (extracellular matrix protein-1, secretory isoform a), wild type (human) (UniProt Q16610); test: affinity purification with mass spectrometry + co-IP; HA antibody on total cell lysates or membrane fractions of ECM1a-WT or ECM1a-MT cells, or membrane fractions of HeyA8 cells pretreated with their conditioned medium; selected bands by MS, confirmed by co-IP

binding, binds:
calnexin (from UniProt P27824 21-592), integrin β1 (from UniProt P05556 21-798) (receptor), annexin A2 (from UniProt P07355 1-339), B1, B2

target: HA-tagged ECM1a mutant with VAQ instead of the GPR motif (human) (UniProt Q16610); test: as above

binding, binds:
B3, B4

These are yes or no findings as the source states them, for the method shown. Binding seen in cells or lysates may run through a third protein. These calls come from enrichment with a bait or labelling near it, and not all partners need be listed.
